Patent publication US20240336680A1
No constants are given. Whether binding was seen depends on the method and setting. Some results given as binding are weak or reduced against the parent protein; the word gives no strength. Tags and fused reporters may be left off the sequences shown.

Legend:
[1] = target: T1, human CLDN18.2EC1 (extra-cellular domain 1) human Fc protein (human) (UniProt P56856); experiment: ELISA, human CLDN18.2EC1-huFc coated at 1 ug/ml, HRP goat anti-mouse IgG, OD 450 nm
T1 sequence (looked up): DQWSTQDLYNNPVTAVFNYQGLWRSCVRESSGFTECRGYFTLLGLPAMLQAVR

[2] = target: T1, human CLDN18.2EC1 (extra-cellular domain 1) human Fc protein (human); experiment: ELISA, plate coated with human CLDN18.2EC1-huFc at 1 µg/ml, five-fold dilutions from 20 µg/ml

binding [1]: binds
binding [2]: binds
B1: T158S2 (anti-CLDN18.2 mouse hybridoma antibody) (antibody, V domains shown)
VH: EVKLVESGGGLVQPGGSLKLSCATSGFTFSDYYMFWIRQTPEKRLEWVASISDGGGDTYYPDTVKGRFTISRDNAKNTLYLQMSRLKSEDTAMYYCARHRGSLDYWGQGTTLTVSS
VL: DIVLTQSPASLAVSLGQRATISCRASESVDNYGFSFLHWYQQKPGQPPKLLIYRASNLASGIPARFSGSGSRTDFTLTINPVETDDVATYYCQQSNQGPLTFGAGTKLELK
